# No constants are given. Whether binding was seen depends on the method and setting. In cells and extracts the contact can be indirect.
# Protein sequences, listed by entry. Tags and fused reporters are not part of them. Lines headed by an entry give the natural chain unless they say otherwise; changes in a name come on top.
# UniProt P56524: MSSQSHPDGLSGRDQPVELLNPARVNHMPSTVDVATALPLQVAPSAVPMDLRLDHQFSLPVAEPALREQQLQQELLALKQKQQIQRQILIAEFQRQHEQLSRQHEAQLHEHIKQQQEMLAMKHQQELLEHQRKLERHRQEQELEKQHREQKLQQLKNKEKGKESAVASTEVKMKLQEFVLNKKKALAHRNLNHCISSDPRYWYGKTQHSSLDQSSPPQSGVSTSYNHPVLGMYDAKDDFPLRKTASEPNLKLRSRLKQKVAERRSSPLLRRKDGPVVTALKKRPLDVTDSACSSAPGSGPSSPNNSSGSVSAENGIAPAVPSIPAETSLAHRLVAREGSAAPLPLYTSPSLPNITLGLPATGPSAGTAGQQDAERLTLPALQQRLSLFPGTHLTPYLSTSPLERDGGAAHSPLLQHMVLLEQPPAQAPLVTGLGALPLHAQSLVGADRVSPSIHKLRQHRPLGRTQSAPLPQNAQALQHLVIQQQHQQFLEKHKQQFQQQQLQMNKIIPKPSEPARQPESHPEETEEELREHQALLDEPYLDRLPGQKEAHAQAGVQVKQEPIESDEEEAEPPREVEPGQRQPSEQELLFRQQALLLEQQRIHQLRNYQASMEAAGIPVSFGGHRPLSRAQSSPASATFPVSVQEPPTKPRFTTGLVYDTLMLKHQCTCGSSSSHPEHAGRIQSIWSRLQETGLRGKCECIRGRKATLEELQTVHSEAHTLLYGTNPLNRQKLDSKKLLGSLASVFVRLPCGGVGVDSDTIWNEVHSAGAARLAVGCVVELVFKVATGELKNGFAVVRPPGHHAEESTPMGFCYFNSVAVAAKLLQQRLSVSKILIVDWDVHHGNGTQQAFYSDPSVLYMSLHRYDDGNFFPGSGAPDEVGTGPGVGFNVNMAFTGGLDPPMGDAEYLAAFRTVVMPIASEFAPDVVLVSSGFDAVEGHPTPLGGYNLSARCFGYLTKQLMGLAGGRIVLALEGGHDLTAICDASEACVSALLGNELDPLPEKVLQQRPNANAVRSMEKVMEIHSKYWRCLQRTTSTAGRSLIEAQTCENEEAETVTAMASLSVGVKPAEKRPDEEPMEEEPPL
# UniProt O15379: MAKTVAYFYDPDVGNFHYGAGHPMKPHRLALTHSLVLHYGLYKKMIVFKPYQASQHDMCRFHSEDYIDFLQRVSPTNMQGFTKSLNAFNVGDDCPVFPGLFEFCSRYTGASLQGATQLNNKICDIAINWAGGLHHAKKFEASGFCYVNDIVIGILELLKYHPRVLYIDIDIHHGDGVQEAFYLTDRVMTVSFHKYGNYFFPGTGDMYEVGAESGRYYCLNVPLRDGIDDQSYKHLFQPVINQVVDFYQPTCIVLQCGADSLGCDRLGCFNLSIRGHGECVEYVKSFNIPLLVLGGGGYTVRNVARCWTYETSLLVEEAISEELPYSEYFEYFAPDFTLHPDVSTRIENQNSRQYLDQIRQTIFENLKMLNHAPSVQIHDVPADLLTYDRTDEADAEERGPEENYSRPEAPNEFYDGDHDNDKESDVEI
# How the values were obtained:
# [1] = molecular target: Flag-HDAC4-M902Hfs (human) (UniProt P56524); experiment: co-IP
# [2] = molecular target: Flag-HDAC4-M902Wfs (human) (UniProt P56524); experiment: co-IP
substance,measurement,setting,value
HDAC3 (from UniProt O15379 1-428),binding,[1],no binding
same,binding,[2],no binding

# — paper doi:10.1101/2025.10.14.682279
